Measurements: publication PMC3374257
No constants are given. Whether binding was seen depends on the method and setting. In cells and extracts the contact can be indirect. A yes stands for co-enrichment or nearness to the bait. Other partners may have been found.

By UniProt entry, the sequences of proteins in these tests, tags left out.
UniProt Q8BKJ9: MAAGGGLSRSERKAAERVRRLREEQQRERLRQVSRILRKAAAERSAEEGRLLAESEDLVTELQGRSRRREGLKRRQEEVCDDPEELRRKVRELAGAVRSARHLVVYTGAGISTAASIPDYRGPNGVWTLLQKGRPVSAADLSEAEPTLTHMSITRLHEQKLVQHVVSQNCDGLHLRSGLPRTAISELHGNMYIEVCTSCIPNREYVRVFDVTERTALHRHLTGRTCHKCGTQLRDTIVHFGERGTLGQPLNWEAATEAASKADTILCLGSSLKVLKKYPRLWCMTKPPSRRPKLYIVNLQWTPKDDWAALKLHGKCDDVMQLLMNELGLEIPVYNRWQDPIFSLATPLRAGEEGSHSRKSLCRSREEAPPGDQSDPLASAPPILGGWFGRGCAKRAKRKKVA

Biological target: T1, Sirt1 (UniProt Q923E4)
T1 sequence: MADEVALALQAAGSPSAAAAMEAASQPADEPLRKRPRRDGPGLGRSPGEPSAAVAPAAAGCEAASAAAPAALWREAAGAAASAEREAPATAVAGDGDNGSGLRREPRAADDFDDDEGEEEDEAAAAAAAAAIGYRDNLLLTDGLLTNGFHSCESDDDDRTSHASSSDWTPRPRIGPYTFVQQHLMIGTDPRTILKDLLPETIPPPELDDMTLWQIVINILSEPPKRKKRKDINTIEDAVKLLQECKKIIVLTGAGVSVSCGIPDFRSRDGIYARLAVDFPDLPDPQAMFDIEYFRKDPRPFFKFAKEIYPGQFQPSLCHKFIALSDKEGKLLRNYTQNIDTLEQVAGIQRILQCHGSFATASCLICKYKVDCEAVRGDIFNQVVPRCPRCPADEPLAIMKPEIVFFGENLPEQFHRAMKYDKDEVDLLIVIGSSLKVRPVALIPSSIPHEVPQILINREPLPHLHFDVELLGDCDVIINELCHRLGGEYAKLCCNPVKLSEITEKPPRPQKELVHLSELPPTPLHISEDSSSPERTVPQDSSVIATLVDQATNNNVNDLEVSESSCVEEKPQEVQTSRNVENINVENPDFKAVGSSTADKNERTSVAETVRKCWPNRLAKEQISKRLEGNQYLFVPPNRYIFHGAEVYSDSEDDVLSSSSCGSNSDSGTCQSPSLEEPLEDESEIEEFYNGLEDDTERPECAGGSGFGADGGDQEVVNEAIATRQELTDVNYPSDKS
Assay: affinity purification with mass spectrometry; unbiased screen for Sirt1 interactors; label free quantitative mass spectrometry based co-immunoprecipitation; Sirt1 as bait

binding: binds
Substance: Sirt7 (from UniProt Q8BKJ9 1-402)
